## Cell number after 72 h of treatment

Data from the primary screen of doi:10.1371/journal.pone.0140310, rounded.

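Human melanoma cells were exposed to two drugs together for 72 h in 1,536-well plates and read by automated microscopy after fixing and staining. The read-out is cell count (nuclei) in % of the DMSO control; lower values mean stronger growth inhibition or killing. Every drug was used at one fixed concentration, the lower of two screened (a fifth of the higher). These are primary screening values without error estimates.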 This is part of the screen, not chosen by result. An entry leaves out what has no value listed here.

Compounds and concentrations:
nilotinib (200 nM): Cc1cn(-c2cc(NC(=O)c3ccc(C)c(Nc4nccc(-c5cccnc5)n4)c3)cc(C(F)(F)F)c2)cn1
KU-55933 (1000 nM): O=c1cc(-c2cccc3c2Sc2ccccc2S3)oc(N2CCOCC2)c1
nutlin-3 (100 nM): COc1ccc(C2=N[C@@H](c3ccc(Cl)cc3)[C@@H](c3ccc(Cl)cc3)N2C(=O)N2CCNC(=O)C2)c(OC(C)C)c1
tozasertib (6 nM): Cc1cc(Nc2cc(N3CCN(C)CC3)nc(Sc3ccc(NC(=O)C4CC4)cc3)n2)n[nH]1
vincristine (0.1 nM): CC[C@]1(O)C[C@H]2CN(CCc3c([nH]c4ccccc34)[C@@](C(=O)OC)(c3cc4c(cc3OC)N(C=O)[C@H]3[C@@](O)(C(=O)OC)[C@H](OC(C)=O)[C@]5(CC)C=CCN6CC[C@]43[C@@H]65)C2)C1
CHIR-265 (80 nM): Cn1c(Nc2ccc(C(F)(F)F)cc2)nc2cc(Oc3ccnc(-c4ncc(C(F)(F)F)[nH]4)c3)ccc21
ABT-263 (400 nM): CC1(C)CCC(c2ccc(Cl)cc2)=C(CN2CCN(c3ccc(C(=O)NS(=O)(=O)c4ccc(N[C@H](CCN5CCOCC5)CSc5ccccc5)c(S(=O)(=O)C(F)(F)F)c4)cc3)CC2)C1
pazopanib (400 nM): Cc1ccc(Nc2nccc(N(C)c3ccc4c(C)n(C)nc4c3)n2)cc1S(N)(=O)=O
fingolimod (2000 nM): CCCCCCCCc1ccc(CCC(N)(CO)CO)cc1
veliparib (1400 nM): C[C@]1(c2nc3c(C(N)=O)cccc3[nH]2)CCCN1
stibogluconate (2000 nM): O=C(O)[C@@H]1[O][Sb](=[O])([O][Sb]2(=[O])[O][C@H]([C@H](O)CO)[C@H](O)[C@H](C(=O)O)[O]2)[O][C@H]([C@H](O)CO)[C@@H]1O (stereo partly shown)

Pair: stibogluconate + nilotinib
LB2518-MEL: 128

Pair: fingolimod + pazopanib
LB2518-MEL: 108

Pair: CHIR-265 + KU-55933
501mel: 75.5
LB2518-MEL: 59.5

Pair: nutlin-3 + CHIR-265
LB2518-MEL: 62.6

Pair: fingolimod + nutlin-3
LB2518-MEL: 108

Pair: CHIR-265 + tozasertib
LB2518-MEL: 52.2

Pair: veliparib + nilotinib
LB2518-MEL: 87.5

Pair: tozasertib + vincristine
LB2518-MEL: 85.9

Pair: pazopanib + vincristine
LB2518-MEL: 91.7

Pair: nutlin-3 + pazopanib
LB2518-MEL: 87.9

Pair: KU-55933 + nilotinib
501mel: 71.1
LB2518-MEL: 123

Pair: pazopanib + ABT-263
LB2518-MEL: 80.5

Pair: vincristine + fingolimod
LB2518-MEL: 94.9

Pair: pazopanib + nilotinib
LB2518-MEL: 86.9

Pair: CHIR-265 + pazopanib
LB2518-MEL: 63.2

Pair: nilotinib + tozasertib
LB2518-MEL: 98.8

Pair: CHIR-265 + fingolimod
LB2518-MEL: 55.3

Pair: nutlin-3 + KU-55933
501mel: 94.4
LB2518-MEL: 113

Pair: stibogluconate + veliparib
LB2518-MEL: 99.6

Pair: veliparib + vincristine
LB2518-MEL: 85.6

Pair: tozasertib + pazopanib
LB2518-MEL: 100

Pair: stibogluconate + nutlin-3
LB2518-MEL: 98.8

Pair: CHIR-265 + stibogluconate
LB2518-MEL: 62.7

Pair: vincristine + ABT-263
LB2518-MEL: 102

3 of the entries, repeated:

{"pair": "nutlin-3 + CHIR-265", "LB2518-MEL": 62.6}
{"pair": "nutlin-3 + KU-55933", "501mel": 94.4, "LB2518-MEL": 113}
{"pair": "KU-55933 + nilotinib", "501mel": 71.1, "LB2518-MEL": 123}